Structures were worked out from names or drawings and are uncertain.
Tests used:
[1] = biological target: recombinant human transglutaminase 2 (Homo sapiens, UniProt P21980); experiment: Transglutaminase assay (dansylcadaverine incorporation into dimethylcasein, DCC-assay); details: read-out: IC50 TG2, recombinant human TG2 10 nM, 37° C.
Experimental: For the determination of potency of inhibitors against tissue transglutaminase, the incorporation of dansylcadaverine into dimethylcasein (Zedira product T036, Lorand et al., Anal Biochem, 1971, 44:221-31) was measured using recombinant human transglutaminase 2 (Zedira Product T022).
The tissue transglutaminase is diluted in buffer (50 mM Tris-HCl, 7.5 mM CaCl2, 150 mM NaCl, pH=7.4). The final concentration of TG2 in the assay is 10 nM.
A 10 mM inhibitor stock solution is prepared in DMSO, and from this a serial 1:2-fold dilution series is prepared also in DMSO. Each of the initial dilutions is subsequently diluted 1:50-fold with buffer (50 mM Tris-HCl, 7.5 mM CaCl2, 150 mM NaCl, pH=7.4) to yield the final working dilutions containing 2% (v/v) DMSO.
15 μl of inhibitor working dilution are added per well of a 96 well microtiter plate. As control, 15 μl of a 2% (v/v) DMSO solution prepared using the buffer mentioned above are added per well.
Immediately before starting the assay, 600 μl transglutaminase working solution are added to 11.4 ml assay buffer (50 mM Tris-HCl, 10 mM CaCl2, 10 mM glutathione, 2.5% glycerol, 16.7 μM dansylcadaverine, 4 μM N,N-dimethylcasein, 200 mM NaCl, pH=8.0). […]
Increase in fluorescence is measured using λex=330 nm and λem=500 nm at 37° C. for 30 min. […]
Analysis of enzymatic activity is performed by calculation of the slope of an increase in fluorescence intensity. […]

Protein sequences, listed by entry. Tags and fused reporters are not part of them.
UniProt P21980, whole entry: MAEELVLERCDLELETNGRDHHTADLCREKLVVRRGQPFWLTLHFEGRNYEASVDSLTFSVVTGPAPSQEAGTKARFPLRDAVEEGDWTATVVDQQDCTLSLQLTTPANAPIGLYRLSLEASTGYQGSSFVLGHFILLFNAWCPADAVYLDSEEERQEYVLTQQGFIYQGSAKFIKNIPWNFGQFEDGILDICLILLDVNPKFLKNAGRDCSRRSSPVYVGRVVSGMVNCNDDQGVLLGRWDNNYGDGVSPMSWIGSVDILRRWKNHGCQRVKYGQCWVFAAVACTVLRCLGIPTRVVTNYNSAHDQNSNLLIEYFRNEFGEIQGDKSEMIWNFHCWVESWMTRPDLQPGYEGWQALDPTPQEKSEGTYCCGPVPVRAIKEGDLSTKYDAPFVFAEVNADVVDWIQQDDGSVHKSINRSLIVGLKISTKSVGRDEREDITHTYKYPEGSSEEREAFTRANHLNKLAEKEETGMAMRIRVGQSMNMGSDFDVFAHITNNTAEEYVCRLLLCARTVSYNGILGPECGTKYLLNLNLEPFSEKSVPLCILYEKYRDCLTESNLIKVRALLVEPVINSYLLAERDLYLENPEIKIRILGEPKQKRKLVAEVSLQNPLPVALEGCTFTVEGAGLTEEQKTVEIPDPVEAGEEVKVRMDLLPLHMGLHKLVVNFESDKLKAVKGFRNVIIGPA

Caco-2 barrier = tested on: Caco-2 barrier
Experimental: Permeability coefficients (Papp values) were obtained from Caco-2 barrier studies predicting oral/intestinal bioavailability of the tested compounds. The assays were performed by using CacoReady™ ready-to-use kits from ReadyCell according to the manufacturers protocol.

With Cc1nc(-c2ccccc2)sc1C(=O)N[C@@H](CC/C=C/C(=O)OCc1ccccc1)C(=O)Nc1cccn(CC(=O)NC23CC(C2)C3)c1=O the IC50 [1] was 250 to 1500 nM and the Papp (Caco-2 barrier) was 1 to 10 ×10⁻⁶ cm/s.

Reference: patent US20240317708A1, “INHIBITORS OF TRANSGLUTAMINASES” (ZEDIRA GMBH, priority 2021, published 2024)
